Reference: patent publication US20250283871A1, “COMPOSITIONS AND METHODS FOR MODULATING THE INTERACTION BETWEEN SS18-SSX FUSION ONCOPROTEIN AND NUCLEOSOMES” (Dana-Farber Cancer Institute, Inc., priority 2020, published 2025)

B1: STAG2 (protein, UniProt Q8N3U4 1-1231, looked up)
Cohesin subunit SA-2: MIAAPEIPTDFNLLQESETHFSSDTDFEDIEGKNQKQGKGKTCKKGKKGPAEKGKGGNGGGKPPSGPNRMNGHHQQNGVENMMLFEVVKMGKSAMQSVVDDWIESYKHDRDIALLDLINFFIQCSGCKGVVTAEMFRHMQNSEIIRKMTEEFDEDSGDYPLTMAGPQWKKFKSSFCEFIGVLVRQCQYSIIYDEYMMDTVISLLTGLSDSQVRAFRHTSTLAAMKLMTALVNVALNLSINMDNTQRQYEAERNKMIGKRANERLELLLQKRKELQENQDEIENMMNAIFKGVFVHRYRDAIAEIRAICIEEIGIWMKMYSDAFLNDSYLKYVGWTMHDKQGEVRLKCLTALQGLYYNKELNSKLELFTSRFKDRIVSMTLDKEYDVAVQAIKLLTLVLQSSEEVLTAEDCENVYHLVYSAHRPVAVAAGEFLYKKLFSRRDPEEDGMMKRRGRQGPNANLVKTLVFFFLESELHEHAAYLVDSMWDCATELLKDWECMNSLLLEEPLSGEEALTDRQESALIEIMLCTIRQAAECHPPVGRGTGKRVLTAKEKKTQLDDRTKITELFAVALPQLLAKYSVDAEKVTNLLQLPQYFDLEIYTTGRLEKHLDALLRQIRNIVEKHTDTDVLEACSKTYHALCNEEFTIFNRVDISRSQLIDELADKFNRLLEDFLQEGEEPDEDDAYQVLSTLKRITAFHNAHDLSKWDLFACNYKLLKTGIENGDMPEQIVIHALQCTHYVILWQLAKITESSSTKEDLLRLKKQMRVFCQICQHYLTNVNTTVKEQAFTILCDILMIFSHQIMSGGRDMLEPLVYTPDSSLQSELLSFILDHVFIEQDDDNNSADGQQEDEASKIEALHKRRNLLAAFCKLIVYTVVEMNTAADIFKQYMKYYNDYGDIIKETMSKTRQIDKIQCAKTLILSLQQLFNEMIQENGYNFDRSSSTFSGIKELARRFALTFGLDQLKTREAIAMLHKDGIEFAFKEPNPQGESHPPLNLAFLDILSEFSSKLLRQDKRTVYVYLEKFMTFQMSLRREDVWLPLMSYRNSLLAGGDDDTMSVISGISSRGSTVRSKKSKPSTGKRKVVEGMQLSLTEESSSSDSMWLSREQTLHTPVMMQTPQLTSTIMREPKRLRPEDSFMSVYPMQTEHHQTPLDYNRRGTSLMEDDEEPIVEDVMMSSEGRIEDLNEGMDFDTMDIDLPPSKNRRERTELKPDFFDPASIMDESVLGVSMF
B2: MYO1C (protein, UniProt O00159 1-1063, looked up)
Unconventional myosin-Ic: MALQVELVPTGEIIRVVHPHRPCKLALGSDGVRVTMESALTARDRVGVQDFVLLENFTSEAAFIENLRRRFRENLIYTYIGPVLVSVNPYRDLQIYSRQHMERYRGVSFYEVPPHLFAVADTVYRALRTERRDQAVMISGESGAGKTEATKRLLQFYAETCPAPERGGAVRDRLLQSNPVLEAFGNAKTLRNDNSSRFGKYMDVQFDFKGAPVGGHILSYLLEKSRVVHQNHGERNFHIFYQLLEGGEEETLRRLGLERNPQSYLYLVKGQCAKVSSINDKSDWKVVRKALTVIDFTEDEVEDLLSIVASVLHLGNIHFAANEESNAQVTTENQLKYLTRLLSVEGSTLREALTHRKIIAKGEELLSPLNLEQAAYARDALAKAVYSRTFTWLVGKINRSLASKDVESPSWRSTTVLGLLDIYGFEVFQHNSFEQFCINYCNEKLQQLFIELTLKSEQEEYEAEGIAWEPVQYFNNKIICDLVEEKFKGIISILDEECLRPGEATDLTFLEKLEDTVKHHPHFLTHKLADQRTRKSLGRGEFRLLHYAGEVTYSVTGFLDKNNDLLFRNLKETMCSSKNPIMSQCFDRSELSDKKRPETVATQFKMSLLQLVEILQSKEPAYVRCIKPNDAKQPGRFDEVLIRHQVKYLGLLENLRVRRAGFAYRRKYEAFLQRYKSLCPETWPTWAGRPQDGVAVLVRHLGYKPEEYKMGRTKIFIRFPKTLFATEDALEVRRQSLATKIQAAWRGFHWRQKFLRVKRSAICIQSWWRGTLGRRKAAKRKWAAQTIRRLIRGFVLRHAPRCPENAFFLDHVRTSFLLNLRRQLPQNVLDTSWPTPPPALREASELLRELCIKNMVWKYCRSISPEWKQQLQQKAVASEIFKGKKDNYPQSVPRLFISTRLGTDEISPRVLQALGSEPIQYAVPVVKYDRKGYKPRSRQLLLTPNAVVIVEDAKVKQRIDYANLTGISVSSLSDSLFVLHVQRADNKQKGDVVLQSDHVIETLTKTALSANRVNSININQGSITFAGGPGRDGTIDFTPGSELLITKAKNGHLAVVAPRLNSR

System: BAF complex subunits and histone proteins
Assay: Mass spectrometry proteomics of purified HA-SS18 WT and HA-SS18-SSX1 complexes (Tables 5A-5E)
Design: species or system human
Details: for Total (total peptides) / Unique (unique peptides): HA-SS18SSX1_CHR_peptides: protein identified in the HA-SS18-SSX1 purification from solubilized chromatin (CHR)
[1] = HA-SS18WT_CHR_peptides: HA-SS18 WT purification from nuclease-treated solubilized chromatin (CHR), HEK-293T, label = protein identified
[2] = HA-SS18SSX1_CHR_peptides: proteins found in HA-SS18-SSX1 BAF complex purification from solubilized chromatin (CHR), HEK-293T
[3] = HA-SS18SSX1_NE_peptides: protein co-purified with HA-SS18-SSX1 BAF complexes from soluble nuclear extract (NE), HEK-293T cells
[4] = HA-SS18WT_NE_peptides: HA-SS18 WT complexes purified from nuclear extract (NE), HEK-293T, label = protein identified (Gene Symbol)

Molecule | Total (total peptides) (HEK-293T) | Unique (unique peptides) (HEK-293T) | Total (peptides) [1] | Unique (peptides) [1] | Total (peptides) [2] | Unique (peptides) [2] | Total (peptides) [3] | Unique (peptides) [3] | Total (peptides) [4] | Unique (peptides) [4]
B1 | 8 | 8 | 6 | 6 | – | – | – | – | – | –
B2 | 8 | 8 | 6 | 5 | 1 | 1 | 2 | 2 | 8 | 8
